Reference: patent EP4724483A2
Results are given in words; binding and its absence hold for the method and conditions named. Some results given as binding are weak or reduced against the parent protein; the word gives no strength. For some of these results: Sequences can lack the tags named with a protein.

The chains behind the UniProt entries cited, without tags or fusion partners. Residues count along the entry.
UniProt Q08334, residues 20-220: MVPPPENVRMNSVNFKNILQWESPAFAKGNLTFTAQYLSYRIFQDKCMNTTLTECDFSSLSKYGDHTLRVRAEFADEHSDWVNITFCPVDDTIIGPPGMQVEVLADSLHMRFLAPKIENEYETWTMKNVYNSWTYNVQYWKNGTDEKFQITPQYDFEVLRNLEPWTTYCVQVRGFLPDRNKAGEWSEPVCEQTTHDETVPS

How the values were obtained:
[1] = target: T1, Fc-fused IL-10Rα receptor (UniProt Q13651); experiment: SPR (Biacore T200), Fc-fused receptor captured, VHH dimer as analyte, 1:1 fit
T1 sequence (looked up): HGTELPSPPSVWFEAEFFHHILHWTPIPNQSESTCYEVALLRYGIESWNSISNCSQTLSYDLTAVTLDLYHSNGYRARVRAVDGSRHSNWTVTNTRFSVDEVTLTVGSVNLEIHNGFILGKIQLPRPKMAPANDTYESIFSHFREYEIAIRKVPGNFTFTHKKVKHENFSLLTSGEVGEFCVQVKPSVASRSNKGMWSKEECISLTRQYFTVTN

[2] = target: Fc-fused IL-10Rβ receptor (UniProt Q08334); experiment: as above

Row | Binder | binding [1] | binding [2]
1 | DR2463, humanized IL-10Rα/IL-10Rβ VHH dimer (IL-10 agonist compound of Table 1) (bispecific antibody) EVQLLESGGGLVQAGGSLRLSCAASGYSNCAYDMTWYRQAPGKEREFVSAIHSDGSTRYADSVKGRFFISRDNSKNTVYLQMNSLRPEDTAVYYCKTDPLHCRAHGGSWYSVRANYWGQGTLVTVSSGGGSEVQLVESGGGLVQPGGSLRLSCAASGYTHSSYCMGWVRQAPGKGLEGVSAIDVDGSTTYADSVKGRFTISRDNSKNTLYLQMNSLRAEDTAVYYCAAEFADCSSNYFLPPGAVRYWGQGTLVTVSSASHHHHHH | binds | binds
2 | DR2503, humanized IL10Rα-IL10Rβ VHH dimer (IL-10 agonist compound of Table 1) (bispecific antibody) EVQLLESGGGLVQAGGSLRLSCAASGYSNCAYDMTWYRQAPGKEREFVSAIHSDGSTYYADSVKGRFFISRDNSKNTVYLQMNSLRPEDTAVYYCKTDPLHCRAHGGSWYSVRANYWGQGTLVTVSSGGGSEVQLVESGGGLVQPGGSLRLSCAASGYTHSSYCMGWVRQAPGKGLEGVSAIDVDGSTTYADSVKGRFTISRDNSKNTLYLQMNSLRAEDTAVYYCAAEFADCSSNYFLPPGAVRYWGQGTLVTVSSASHHHHHH | binds | binds
3 | DR2485, humanized IL-10Rα/IL-10Rβ VHH dimer (IL-10 agonist compound of Table 1) (bispecific antibody) EVQLLESGGGLVQAGGSLRLSCAASGYSNCAYDMTWYRQAPGKEREFVSAIHSDGSTRYADSVKGRFFISRDNSKNTVYLQMNSLRPEDTAVYYCKTDPLHCRAHGGSWYSVRANYWGQGTLVTVSSGGGSEVQLVESGGGLVQPGGSLRLSCAASGYTHSSYCMGWVRQAPGKGLEGVSAIDVDGSTTYADSVKGRFTISRDNSKNTLYLQMNSLRAEDTAVYYCAAEFADCSSNYFLPPGAVRYWGQGTTVTVSS | binds | binds
4 | DR2519, humanized IL-10Rα/IL-10Rβ VHH dimer (IL-10 agonist compound of Table 1) (bispecific antibody) EVQLLESGGGLVQAGGSLRLSCAASGYSNCAYDMTWYRQAPGKEREFVSAIHSDGSTYYADSVKGRFFISRDNSKNTVYLQMNSLRPEDTAVYYCKTDPLHCRAHGGSWYSVRANYWGQGTLVTVSSGGGSEVQLVESGGGLVQPGGSLRLSCAASGYTHSSYCMGWVRQAPGKGLEGVSAIDVDGSTTYADSVKGRFTISRDNSKNTLYLQMNSLRAEDTAVYYCAAEFADCSSNYFLPPGAVRYWGQGTTVTVSS | binds | binds
5 | DR2520, humanized IL-10Rα/IL-10Rβ VHH dimer (IL-10 agonist compound of Table 1) (bispecific antibody) EVQLLESGGGLVQAGGSLRLSCAASGYSNCAYDMTWYRQAPGKEREFVSAIHSSGSTYYADSVKGRFFISRDNSKNTVYLQMNSLRPEDTAVYYCKTDPLHCRAHGGSWYSVRANYWGQGTLVTVSSGGGSEVQLVESGGGLVQPGGSLRLSCAASGYTHSSYCMGWVRQAPGKGLEGVSAIDVDGSTTYADSVKGRFTISRDNSKNTLYLQMNSLRAEDTAVYYCAAEFADCSSNYFLPPGAVRYWGQGTTVTVSS | binds | binds
